Results as given in PubChem BioAssay AID504834 (National Center for Advancing Translational Sciences (NCATS), 2011).
Among all 320,000 compounds or so, about 22,000 (6.9%) were called active. The inconclusive results got no clear call from the source; some entries with a clear call stand among them for comparison. Calls come from the whole dose curve; as a rule, active = well fitted inhibition curve with a large enough effect; inconclusive = small, poorly fitted or top-dose-only effect, or another doubt; inactive = no such curve, though single readings can be large or run the other way. Potencies beside an inconclusive call are fits to weak or partial responses and may not hold up.

test: Primary qHTS for delayed death inhibitors of the malarial parasite plastid, 96 hour incubation; conditions: P. falciparum luciferase reporter growth; series mostly up to 28.7 µM; activity change, negative = inhibition: at the top concentration
Procedure, shortened: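 96 h incubation, 37 C, 5% CO2, of luciferase-reporter P. falciparum-infected RBCs (2% hematocrit, 0.05% parasitemia final) with test compounds; endpoint luminescence.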
% is set by controls: 0 for no effect and ±100 for the full control effect; potency is the fitted concentration of half-maximal effect.

**Q.** For `O=S(=O)(NCc1ccccn1)c1ccccn1`, which “activity change, negative = inhibition” value is on record?
**A.** inactive: -16.6%

**Q.** Which “activity change, negative = inhibition” value does the source give for `O=C(Nc1ccc(F)cc1)N(Cc1cccs1)Cc1cc2cc3c(cc2[nH]c1=O)OCO3` here?
**A.** inactive: 41.3%

**Q.** For `CCO[C@H]1OC(C(=O)O)=C[C@@H](C)[C@@H]1CCCO`, which “activity change, negative = inhibition” value is on record?
**A.** inactive: 72.9%

**Q.** For `O=C(Nc1nnc(-c2cccs2)o1)c1ccco1`, which “activity change, negative = inhibition” value is on record?
**A.** inactive: -5%

**Q.** With `O=C(CSc1ccc2nnc(CCNC(=O)c3ccccc3)n2n1)Nc1ccccc1` as the compound, how does the Potency read?
**A.** inconclusive: 14.7 µM [inhibitor, single point]

**Q.** For `Cc1nn(C(C)C(=O)NCc2ccc(Cl)cc2)c(=O)c2cc3occc3n12` (stereo not given), which Potency is on record?
**A.** inconclusive: 18.5 µM [inhibitor, partial curve, poor fit]

**Q.** For `CCc1nnc(NC(=O)Cn2nc(-c3ccc(OC)c(OC)c3)ccc2=O)s1`, which Potency is on record?
**A.** inconclusive: 1.04 µM [inhibitor, partial curve, poor fit]

**Q.** Which “activity change, negative = inhibition” value does the source give for `COc1ccc(-c2cn3cccnc3n2)cc1F` here?
**A.** inactive: 8.85%

**Q.** With `CC(=O)Nc1nc2c(ncn2COCCOC(C)=O)c(=O)[nH]1` as the compound, how does the Potency read?
**A.** active: 13.1 µM

**Q.** With `CCOC(=O)c1sc(Nc2nc(C)cc(C)n2)nc1C` as the compound, how does the Potency read?
**A.** inconclusive: 2.62 µM [inhibitor, single point]

**Q.** With `COc1ccc(OCC(=O)NNC(=O)c2cccnc2)cc1` as the compound, how does the “activity change, negative = inhibition” value read?
**A.** inactive: 9.81%

**Q.** With `Cc1ccc(C(=O)NCCCc2ccccc2)s1` as the compound, how does the Potency read?
**A.** inconclusive: 13.1 µM [inhibitor, single point]

**Q.** With `CCC1=NC(c2ccccc2OC)N(O)C1(C)C` (stereo not given) as the compound, how does the “activity change, negative = inhibition” value read?
**A.** inactive: 9.36%

**Q.** With `CCc1nnc(NC(=O)CSc2nc(C3CCCCC3)nc3ccccc23)s1` as the compound, how does the Potency read?
**A.** inconclusive: 0.928 µM [inhibitor, full curve]

**Q.** For `Cn1c(SCC(=O)NC(C)(C)C)nnc1-c1cnccn1`, which Potency is on record?
**A.** inconclusive: 0.0233 µM [inhibitor, full curve, poor fit]

**Q.** For `N=c1n(CCO)c2ccccc2n1Cc1ccccc1Cl`, which Potency is on record?
**A.** inconclusive: 14.7 µM [inhibitor, single point]

**Q.** Which Potency does the source give for `N#CCCn1cc(C(=O)Nc2ccc([N+](=O)[O-])cc2)c(-c2ccc3c(c2)OCCO3)n1` here?
**A.** inconclusive: 11.7 µM [inhibitor, single point]

**Q.** For `CC(=O)c1cc(C#N)c(SCC(=O)OC(C)(C)C)nc1C`, which Potency is on record?
**A.** inconclusive: 18.5 µM [inhibitor, single point]

**Q.** Which “activity change, negative = inhibition” value does the source give for `COc1ccc(CCC(=O)Nc2c(C)n(C)n(-c3ccccc3)c2=O)cc1` here?
**A.** inactive: -30%

**Q.** For `C[C@@H]1NC(=O)[C@H](CCC(N)=O)NC(=O)c2cc([N+](=O)[O-])cc(I)c2NCCC[C@@H](C(N)=O)NC1=O`, which “activity change, negative = inhibition” value is on record?
**A.** inactive: 13.1%

**Q.** Which Potency does the source give for `CCOC(=O)c1[nH]c(C)c(C(=O)N2CCN(C(=O)OCC)CC2)c1CC` here?
**A.** inconclusive: 9.28 µM [inhibitor, single point]

**Q.** For `CCOc1ccccc1NC(=O)CCc1nnc2ccc(N3CCC(C)CC3)nn12`, which Potency is on record?
**A.** inconclusive: 18.5 µM [inhibitor, single point]

**Q.** Which “activity change, negative = inhibition” value does the source give for `Cc1csc(NC(=O)c2cc3ccccc3o2)n1` here?
**A.** inactive: 90.9%

**Q.** For `COc1ccccc1CNC(=O)CN1C(=O)CSc2ccc(S(=O)(=O)N3CCCC3)cc21`, which Potency is on record?
**A.** inconclusive: 8.28 µM [inhibitor, partial curve, poor fit]

**Q.** For `CCCCCCCNC(=O)C1(CC2CC(c3cccc(Br)c3)=NO2)CCN(C(=O)OC(C)(C)C)CC1` (stereo not given), which Potency is on record?
**A.** active: 4.65 µM

**Q.** With `CC(=O)Nc1cccc(NC(=O)c2cc(-c3cccnc3)nc3ccc(Br)cc23)c1` as the compound, how does the Potency read?
**A.** inconclusive: 13.1 µM [inhibitor, partial curve, poor fit]

**Q.** With `CC1(C)Cc2c(sc(/N=C/N3CCCCCC3)c2C#N)C(C)(C)N1` as the compound, how does the Potency read?
**A.** inconclusive: 7.38 µM [inhibitor, partial curve, poor fit]

**Q.** Which “activity change, negative = inhibition” value does the source give for `CCOC(=O)c1c(NC(=O)CSC2=NN3CCCC(=O)N=C3S2)sc2c1CCCCC2` here?
**A.** inactive: -2.9%

**Q.** Which Potency does the source give for `Oc1cccc(CN2CCCCC2)c1` here?
**A.** inconclusive: 9.28 µM [inhibitor, partial curve]

**Q.** For `O=C(Nc1ccccc1C(=O)Nc1nnc(C(F)(F)F)s1)c1ccccc1`, which Potency is on record?
**A.** active: 2.62 µM

**Q.** Which Potency does the source give for `COc1cc(/C=C/C(O)=C/C(=O)/C=C/c2ccc(O)cc2)ccc1O` here?
**A.** inconclusive: 18.5 µM [inhibitor, single point]

**Q.** With `CC(C)(C)c1ccc(CSc2ccc(S(=O)(=O)N3CCOCC3)cn2)cc1` as the compound, how does the Potency read?
**A.** inconclusive: 18.5 µM [inhibitor, single point]

**Q.** With `CC(Sc1nnc(-c2cccs2)n1N)C(=O)NCC1CCCO1` (stereo not given) as the compound, how does the “activity change, negative = inhibition” value read?
**A.** inactive: -0.724%

**Q.** For `Cc1cc(N2C(=O)C3CCCN3C2c2cccc(Cl)c2)no1` (stereo not given), which Potency is on record?
**A.** active: 4.65 µM

**Q.** With `O=S(=O)(Nc1ccccc1N1CCCCC1)c1cccs1` as the compound, how does the “activity change, negative = inhibition” value read?
**A.** inactive: 7.4%

**Q.** Which “activity change, negative = inhibition” value does the source give for `Cc1ccc(NC(=S)Nc2cc(C)on2)cc1` here?
**A.** inactive: 156%

**Q.** For `C[n+]1ccn(CC(=O)c2cccs2)c1`, which Potency is on record?
**A.** inconclusive: 2.62 µM [inhibitor, single point]

**Q.** Which activity change, negative = inhibition does the source give for `O=C(Nc1ccccn1)c1ccc2ccccc2n1` here?
**A.** inactive: -0.842% [at 5.75 µM]

**Q.** For `O=C(C[n+]1ccc2c(c1)nnn2-c1ccccc1)c1ccc(Cl)cc1`, which Potency is on record?
**A.** inconclusive: 0.329 µM [inhibitor, full curve]

**Q.** With `O=C(c1cc(S(=O)(=O)N2CCOCC2)c(Cl)cc1Cl)N1CCCC1` as the compound, how does the Potency read?
**A.** inconclusive: 0.465 µM [inhibitor, partial curve, poor fit]

**Q.** With `CN(C)c1ccc(C(=O)N2CCCC(CCC(=O)N3CCN(c4ccccn4)CC3)C2)cc1` (stereo not given) as the compound, how does the Potency read?
**A.** inconclusive: 18.5 µM [inhibitor, single point]

**Q.** With `Cn1c(=O)c2cnc(N3CCOCC3)nc2n(C)c1=O` as the compound, how does the Potency read?
**A.** inconclusive: 16.5 µM [inhibitor, single point]

**Q.** With `Cc1ccc(S(=O)(=O)NCC2COc3ccccc3O2)cc1` (stereo not given) as the compound, how does the “activity change, negative = inhibition” value read?
**A.** inactive: 180%

**Q.** With `COc1ccc(NC(=O)CN(C)C(=O)c2cccc(S(=O)(=O)N3CC4(C)CC3CC(C)(C)C4)c2)cc1` (stereo not given) as the compound, how does the Potency read?
**A.** inconclusive: 11.7 µM [inhibitor, partial curve]

**Q.** With `CN(C)S(=O)(=O)c1ccc2nc(NC(=O)c3cccnc3)sc2c1` as the compound, how does the Potency read?
**A.** inconclusive: 8.28 µM [inhibitor, partial curve]

**Q.** Which Potency does the source give for `COc1cccc(C(=O)O/N=C(\N)c2ccc([N+](=O)[O-])cc2)c1OC` here?
**A.** inconclusive: 10.4 µM [inhibitor, single point]

**Q.** With `CC(C)(C)n1nc2c(c1NC(=O)Cc1ccc(F)cc1)CSC2` as the compound, how does the Potency read?
**A.** active: 10.4 µM

**Q.** For `CCCCCCCn1c(=O)c(C(=O)Nc2cnccn2)c(O)c2ccccc21`, which Potency is on record?
**A.** inconclusive: 1.65 µM [inhibitor, full curve, poor fit]

**Q.** For `O=C(CNS(=O)(=O)c1cccs1)N1CCCCC1`, which Potency is on record?
**A.** inconclusive: 11.7 µM [inhibitor, single point]

**Q.** Which Potency does the source give for `O=C(Nc1ccc(F)cc1)C(Cc1ccccc1)n1cccc1` (stereo not given) here?
**A.** inconclusive: 13.1 µM [inhibitor, partial curve, poor fit]

**Q.** With `O=c1[nH]cccc1-c1nc2ccccc2n1Cc1cccc(Cl)c1` as the compound, how does the Potency read?
**A.** inconclusive: 11.7 µM [inhibitor, single point]

**Q.** For `CN(c1ccccc1)S(=O)(=O)c1ccc(C(=O)NNC(=O)c2ccccc2F)cc1`, which Potency is on record?
**A.** inconclusive: 9.28 µM [inhibitor, single point]

**Q.** Which Potency does the source give for `O=C1CN=C(c2ccccc2)c2ccccc2N1Cc1ccc(C(F)(F)F)cc1` here?
**A.** inconclusive: 4.65 µM [inhibitor, partial curve]

**Q.** With `O=C(CC1C(=O)NCCN1CC1CCCCC1)NCCCN1CCOCC1` (stereo not given) as the compound, how does the Potency read?
**A.** inconclusive: 18.5 µM [inhibitor, single point]

**Q.** Which “activity change, negative = inhibition” value does the source give for `CC1CCN(S(=O)(=O)c2ccc(NC(=O)C3CC(=O)N(c4ccccc4)C3)cc2)CC1` (stereo not given) here?
**A.** inactive: 4.87%

**Q.** With `CC1(O)CC(c2ccc(Cl)cc2)=NN1C(=O)c1ccc(Cl)cc1` (stereo not given) as the compound, how does the “activity change, negative = inhibition” value read?
**A.** inactive: 0%

**Q.** With `CCOc1cccc2sc(N(CCCN(C)C)C(=O)c3ccc(S(=O)(=O)N(C)CC4CCCO4)cc3)nc12` (stereo not given) as the compound, how does the Potency read?
**A.** inconclusive: 13.1 µM [inhibitor, single point]

**Q.** Which Potency does the source give for `Cc1ccc(S(=O)(=O)c2cn(C)c3cc(N4CCN(C)CC4)c(F)cc3c2=O)cc1` here?
**A.** inconclusive: 11.7 µM [inhibitor, single point]

**Q.** With `CCCCn1c(=O)[nH]c(=O)c2c1nc(-c1ccccc1F)n2Cc1ccccc1` as the compound, how does the Potency read?
**A.** inconclusive: 9.28 µM [inhibitor, single point]

**Q.** For `COC(=O)c1ccc(NC(=O)COc2ccc(S(=O)(=O)N3CCCCC3)cc2)cc1`, which Potency is on record?
**A.** inconclusive: 8.28 µM [inhibitor, partial curve, poor fit]

**Q.** For `O=c1[nH]c(O)c(N=Nc2ccc(SC(F)F)cc2)c(=O)[nH]1`, which “activity change, negative = inhibition” value is on record?
**A.** inactive: 54.4%

**Q.** Which Potency does the source give for `CCn1c(=O)c(C(=O)CN2CCc3ccccc32)c(N)n(Cc2ccccc2)c1=O` here?
**A.** inconclusive: 14.7 µM [inhibitor, partial curve, poor fit]

**Q.** With `Cc1cccc(C(=O)N[C@H](C(=O)Nc2ccc(S(=O)(=O)NC3=NCCCCC3)cc2)C(C)C)c1` as the compound, how does the Potency read?
**A.** inconclusive: 18.5 µM [inhibitor, single point]

**Q.** Which Potency does the source give for `CC(=O)C1=C(C)OC(N)=C(C#N)C1c1ccco1` (stereo not given) here?
**A.** inconclusive: 18.5 µM [inhibitor, single point]

**Q.** Which “activity change, negative = inhibition” value does the source give for `CN(CC(=O)Nc1ccccc1C(F)(F)F)C(=O)c1ccc2c(=O)n3c(nc2c1)CCC3` here?
**A.** inactive: -14%

**Q.** For `Cc1ccc(C2C=C(c3ccc4c(c3)OCO4)Nc3ncnn32)cc1` (stereo not given), which Potency is on record?
**A.** active: 11.7 µM

**Q.** With `CCCCn1c(/C=N/Nc2nc3ccccc3[nH]2)nc2ccccc21` as the compound, how does the Potency read?
**A.** inconclusive: 13.1 µM [inhibitor, partial curve, poor fit]

**Q.** With `O=C(Cc1cccs1)N1CCN=C1SCc1ccccc1Cl` as the compound, how does the Potency read?
**A.** inconclusive: 0.117 µM [inhibitor, full curve, poor fit]

**Q.** For `COCc1c(C(=O)NCCOc2ccc(Cl)cc2)oc2ccccc12`, which Potency is on record?
**A.** inconclusive: 2.08 µM [inhibitor, partial curve, poor fit]

**Q.** Which “activity change, negative = inhibition” value does the source give for `CC(=O)c1cccc(NC(=O)C23CC4CC(C2)CC(n2cncn2)(C4)C3)c1` here?
**A.** inactive: 29.4%
